This note sets out measurements from article PMC4712785.

Results are given in words; binding and its absence hold for the method and conditions named. Some entries that bind do so weakly or less than the wild type. Where a sequence is shown, tags or fusion partners need not be part of it.

The test deals with T1, Gal4 DNA-binding domain fusion of Rom2 (S. cerevisiae) (UniProt P51862).
T1 sequence: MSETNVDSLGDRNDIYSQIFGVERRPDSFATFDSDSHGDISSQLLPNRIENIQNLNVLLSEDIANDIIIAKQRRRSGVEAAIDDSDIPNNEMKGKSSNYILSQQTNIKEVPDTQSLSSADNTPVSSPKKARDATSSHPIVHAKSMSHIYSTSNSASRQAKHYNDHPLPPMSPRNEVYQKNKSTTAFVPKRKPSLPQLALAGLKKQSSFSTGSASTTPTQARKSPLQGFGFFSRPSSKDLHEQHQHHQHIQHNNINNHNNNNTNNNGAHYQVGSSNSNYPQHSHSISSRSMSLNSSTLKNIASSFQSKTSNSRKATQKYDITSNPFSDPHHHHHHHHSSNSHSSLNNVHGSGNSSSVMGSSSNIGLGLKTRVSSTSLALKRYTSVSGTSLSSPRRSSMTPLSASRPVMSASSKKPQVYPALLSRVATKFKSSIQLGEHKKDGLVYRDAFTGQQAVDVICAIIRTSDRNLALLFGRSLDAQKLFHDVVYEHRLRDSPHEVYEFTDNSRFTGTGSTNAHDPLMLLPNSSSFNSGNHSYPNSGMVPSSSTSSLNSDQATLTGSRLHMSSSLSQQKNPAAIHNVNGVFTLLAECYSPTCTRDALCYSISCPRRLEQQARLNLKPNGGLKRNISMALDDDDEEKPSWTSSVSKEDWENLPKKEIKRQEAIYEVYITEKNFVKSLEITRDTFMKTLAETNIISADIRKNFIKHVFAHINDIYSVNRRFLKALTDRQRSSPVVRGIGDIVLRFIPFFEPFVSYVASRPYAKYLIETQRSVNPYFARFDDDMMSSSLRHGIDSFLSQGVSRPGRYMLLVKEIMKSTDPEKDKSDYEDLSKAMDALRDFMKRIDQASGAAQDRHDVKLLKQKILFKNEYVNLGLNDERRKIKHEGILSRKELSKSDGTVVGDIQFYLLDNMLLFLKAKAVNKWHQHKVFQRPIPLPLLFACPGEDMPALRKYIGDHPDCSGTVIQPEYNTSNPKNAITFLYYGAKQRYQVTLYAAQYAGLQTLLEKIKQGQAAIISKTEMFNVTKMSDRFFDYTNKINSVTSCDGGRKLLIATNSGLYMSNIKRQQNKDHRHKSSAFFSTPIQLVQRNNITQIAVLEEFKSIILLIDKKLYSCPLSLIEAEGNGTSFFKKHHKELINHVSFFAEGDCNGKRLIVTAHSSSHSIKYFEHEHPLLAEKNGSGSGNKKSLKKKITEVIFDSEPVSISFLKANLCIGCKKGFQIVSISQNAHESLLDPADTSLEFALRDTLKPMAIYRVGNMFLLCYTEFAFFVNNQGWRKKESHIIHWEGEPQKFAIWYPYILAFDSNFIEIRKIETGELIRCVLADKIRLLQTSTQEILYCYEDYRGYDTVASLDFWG
The test is described as follows: two-hybrid; yeast two-hybrid in PJ69-4a cells; Gal4 DBD fusions (pGBT9-derived) as bait, Gal4 TAD fusions (pACT2-derived) as prey; growth on SC-Leu-Trp-His, 4 days at 30°C.

B1: Gal4 transcriptional activation domain fusion of the Aly2 C-terminus (residues 600-1046) (domain or fragment, UniProt P47029 600-1046)
chain: PSTSLTRNSRQFNRNSKSHPSDNTIFNSAKLKSNIYQPESLQRELASPQAIPLSPITSPMSNMEVPPPDFDFSSDFISDAASGTTTTEVSSSESSILPRDPPSYKDTVLHDNNQKRRPNSKHPTPPSLKASHPNKNSDKNSSETLNKKESMSKIEENKHKRETTPKKRENRDVKSLSTPQREESKDSTSTGNQSNEKNRKRVLSLSSSLHSSPNNSGFAHSALGNLSNESLRSLNRRESVQDNLPSTIRHDNPFFTDLNQVLIEDELKNHDKNELNRHSTNTSSTPASARSSFDYSGINISKDKLNMEPLLSKTETLTNKVNEDSFLRPNDSYVDLLEPSVDTTIDITAPYARNSSAWHPLQNDNDNNQFSPLLGSNENFLNAANAQNSAESDHNNDIFTQGSGLTESSKNSDSEERFISRLSSPEKVLINTLDNESGLQSINESTL
On to B1, for which the binding entry was “binds”.
